The list does not hold the whole screen: it is rich in T/C values a quarter to a half above the control, in often repeated tests (any T/C) and in doses without a T/C. Other doses and runs of a compound stand elsewhere. T/C is the treated group as % of the vehicle group. Some doses have a count of surviving animals in place of a T/C: the source holds a T/C of zero for them, seemingly a mark for toxic or unscored doses. Some doses without a T/C left all or most animals alive at the check, yet need not have been tolerated: the source hardly ever lists a survival T/C far under the control, and the zero likely stands for such cases as well. Survivors were counted at the toxicity check, usually on the fifth day, unless a day is given; later deaths do not show. Schedules are NCI's codes, taken here to give the interval after Q, in days (D) or hours (H), and the number of doses after X. Some entries were tested several times; the results are listed from low to high. For survival time, this PubChem deposit counts one and a half times the control or more as active, and values a quarter to a half above the control carry no call in these data; other NCI protocols may use other cut-offs. Some schedules carry Z or #; the key to these is not given.
Test system: CD2F1 mice, L1210 leukemia ip, survival T/C
Assay: NCI In Vivo Anticancer Drug Screen. Data for tumor model L1210 Leukemia (intraperitoneal) in CD2F1 (CDF1) mice
Conditions: higher T/C = longer survival
Procedure, shortened: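 Antitumor effect is scored in animals hosting a serially transplanted tumor. Values compare compound-dosed animals against vehicle-only controls as a simple quotient.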

[1] = T/C endpoint: mean survival time, dose: 200.0 mg/kg/injection, schedule: Q04DX003 (ip), vehicle: saline with Tween-80
[2] = T/C endpoint: mean survival time, dose: 400.0 mg/kg/injection, schedule: Q04DX003 (ip), vehicle: saline with Tween-80

Nc1nc(N)c2cc(CNc3ccc(C(=O)NC(C(=O)O)C(=O)O)cc3)ccc2n1
survivor count (T/C endpoint: mean survival time, dose: 3.2 mg/kg/injection, schedule: Q01DX009 (ip), vehicle: saline): 5 of 6 | survivor count (T/C endpoint: mean survival time, dose: 6.25 mg/kg/injection, schedule: Q01DX009 (ip), vehicle: saline with Tween-80): 2 of 6 | survivor count (T/C endpoint: mean survival time, dose: 12.5 mg/kg/injection, schedule: Q01DX009 (ip), vehicle: saline with Tween-80): 1 of 6 | survivor count (T/C endpoint: mean survival time, dose: 12.5 mg/kg/injection, schedule: Q04DX003 (ip), vehicle: saline with Tween-80): 6 of 6 | survivor count (T/C endpoint: mean survival time, dose: 25.0 mg/kg/injection, schedule: Q01DX009 (ip), vehicle: saline with Tween-80): 2 of 6 | survivor count (T/C endpoint: mean survival time, dose: 25.0 mg/kg/injection, schedule: Q04DX003 (ip), vehicle: saline with Tween-80): 4 of 6 | survivor count (T/C endpoint: mean survival time, dose: 50.0 mg/kg/injection, schedule: Q04DX003 (ip), vehicle: saline with Tween-80): 5 of 6

CC1=C(/C=C/C(C)(O)CC2=NC(C)(C)CO2)C(C)(C)CCC1 (stereo not drawn)
survivor count [1]: 6 of 6

COc1ccc(N=NN(C)C(=O)c2ccccc2)cc1
T/C (T/C endpoint: mean survival time, dose: 200.0 mg/kg/injection, schedule: Q01DX009 (ip), vehicle: Klucel (hydroxypropylcellulose) (HPC)): 136 % of control

O=[N+]([O-])c1c(O)cc(O)c2ccccc12
survivor count (T/C endpoint: mean survival time, dose: 100.0 mg/kg/injection, schedule: Q01DX001 (ip), vehicle: saline): 0 of 6 | survivor count (T/C endpoint: mean survival time, dose: 200.0 mg/kg/injection, schedule: Q01DX001 (ip), vehicle: saline): 0 of 6 | survivor count (T/C endpoint: mean survival time, dose: 400.0 mg/kg/injection, schedule: Q01DX001 (ip), vehicle: saline): 0 of 6

Cc1cc2c3ccc(C)[n+](C)c3ccc2n1C
survivor count (T/C endpoint: mean survival time, dose: 75.0 mg/kg/injection, schedule: Q01DX001 (ip), vehicle: saline): 0 of 6 | survivor count (T/C endpoint: mean survival time, dose: 150.0 mg/kg/injection, schedule: Q01DX001 (ip), vehicle: saline): 0 of 6 | survivor count (T/C endpoint: mean survival time, dose: 300.0 mg/kg/injection, schedule: Q01DX001 (ip), vehicle: saline): 0 of 6

CC(C)(O)C1C2OC(=O)C1C1(O)CC3OC34C(=O)OC2C14C (stereo not drawn)
survivor count (T/C endpoint: mean survival time, dose: 100.0 mg/kg/injection, schedule: Q04DX003 (ip), vehicle: saline with Tween-80): 4 of 6 | survivor count [1]: 1 of 6 | survivor count [2]: 0 of 6

CCCCC(C#N)C(=O)OCC (stereo not drawn)
survivor count [2]: 1 of 3

CCCCOC(=O)C=O
survivor count (T/C endpoint: mean survival time, dose: 100.0 mg/kg/injection, schedule: Q01DX009 (ip), vehicle: saline with Tween-80): 3 of 3

CC(=O)N(C)N=Nc1ccc(C(C)C)cc1
survivor count (T/C endpoint: mean survival time, dose: 18.75 mg/kg/injection, schedule: Q04DX003 (ip), vehicle: Klucel (hydroxypropylcellulose) (HPC)): 0 of 6 | survivor count (T/C endpoint: mean survival time, dose: 37.5 mg/kg/injection, schedule: Q04DX003 (ip), vehicle: Klucel (hydroxypropylcellulose) (HPC)): 0 of 6 | survivor count (T/C endpoint: mean survival time, dose: 75.0 mg/kg/injection, schedule: Q04DX003 (ip), vehicle: Klucel (hydroxypropylcellulose) (HPC)): 0 of 6 | survivor count (T/C endpoint: mean survival time, dose: 150.0 mg/kg/injection, schedule: Q04DX003 (ip), vehicle: Klucel (hydroxypropylcellulose) (HPC)): 0 of 6 | survivor count (T/C endpoint: mean survival time, dose: 300.0 mg/kg/injection, schedule: Q04DX003 (ip), vehicle: Klucel (hydroxypropylcellulose) (HPC)): 0 of 6

[Cl][Pt+2][Cl].[NH-]C1CCC1.[NH2-]
T/C (T/C endpoint: mean survival time, dose: 0.78 mg/kg/injection, schedule: Q04DX003 (ip), vehicle: water): 128 % of control | T/C (T/C endpoint: mean survival time, dose: 1.56 mg/kg/injection, schedule: Q04DX003 (ip), vehicle: water): 132 % of control | T/C (T/C endpoint: mean survival time, dose: 3.12 mg/kg/injection, schedule: Q04DX003 (ip), vehicle: saline): 126 % of control | survivor count (T/C endpoint: mean survival time, dose: 12.5 mg/kg/injection, schedule: Q04DX003 (ip), vehicle: distilled water + Tween-80): 2 of 6 | survivor count (T/C endpoint: mean survival time, dose: 12.5 mg/kg/injection, schedule: Q04DX003 (ip), vehicle: water): 4 of 6 | survivor count (T/C endpoint: mean survival time, dose: 25.0 mg/kg/injection, schedule: Q04DX003 (ip), vehicle: distilled water + Tween-80): 0 of 6 | survivor count (T/C endpoint: mean survival time, dose: 50.0 mg/kg/injection, schedule: Q04DX003 (ip), vehicle: distilled water + Tween-80): 2 of 6 | survivor count (T/C endpoint: mean survival time, dose: 100.0 mg/kg/injection, schedule: Q04DX003 (ip), vehicle: distilled water + Tween-80): 0 of 6 | survivor count (T/C endpoint: mean survival time, dose: 200.0 mg/kg/injection, schedule: Q04DX003 (ip), vehicle: distilled water + Tween-80): 0 of 6 | T/C (T/C endpoint: median survival time, dose: 0.75 mg/kg/injection, schedule: Q01DX009 (ip), vehicle: saline): 136 and 144 % of control | T/C (T/C endpoint: median survival time, dose: 0.75 mg/kg/injection, schedule: Q01DX009 (ip), vehicle: suspension in saline): 134 % of control | T/C (T/C endpoint: median survival time, dose: 1.5 mg/kg/injection, schedule: Q01DX009 (ip), vehicle: suspension in saline): 146 % of control | T/C (T/C endpoint: median survival time, dose: 6.0 mg/kg/injection, schedule: Q01DX009 (ip), vehicle: suspension in saline): 132 % of control | survivor count (T/C endpoint: median survival time, dose: 12.0 mg/kg/injection, schedule: Q01DX009 (ip), vehicle: saline): 6 of 6 | survivor count (T/C endpoint: median survival time, dose: 24.0 mg/kg/injection, schedule: Q01DX009 (ip), vehicle: suspension in saline): 6 of 6

O=c1[nH]c(=O)c2ncn(C3OC(CO)C(O)C3O)c2[nH]1.O=c1[nH]c(=O)c2ncn(C3OC(CO)C(O)C3O)c2[nH]1.[NH2-].[NH2-].[Pt+2] (stereo not drawn)
T/C (T/C endpoint: mean survival time, dose: 25.0 mg/kg/injection, schedule: Q04DX003 (ip), vehicle: water): 126 % of control | T/C (T/C endpoint: mean survival time, dose: 50.0 mg/kg/injection, schedule: Q#A X018 (ip), vehicle: water): 128 % of control | T/C (T/C endpoint: mean survival time, dose: 100.0 mg/kg/injection, schedule: Q#A X018 (ip), vehicle: water): 144 % of control

CN(C)N=Nc1ccc(Cl)cc1C(N)=O
survivor count (T/C endpoint: mean survival time, dose: 150.0 mg/kg/injection, schedule: Q01DX009 (ip), vehicle: Klucel (hydroxypropylcellulose) (HPC)): 5 of 6 | survivor count (T/C endpoint: mean survival time, dose: 300.0 mg/kg/injection, schedule: Q01DX009 (ip), vehicle: Klucel (hydroxypropylcellulose) (HPC)): 2 of 6 and 4 of 6

CN(C)CCC(=O)c1cccc(O)c1
survivor count (T/C endpoint: mean survival time, dose: 400.0 mg/kg/injection, schedule: Q04DX002 (ip), vehicle: saline with Tween-80): 0 of 3

COc1cccc2c1C(=O)c1c(O)c3c(c(O)c1C2=O)CC(O)(C(C)=O)CC3OC1CC(N)C(O)C(C)O1 (stereo not drawn)
T/C (T/C endpoint: mean survival time, dose: 5.0 mg/kg/injection, schedule: Q01DX009 (ip), vehicle: water): 126 % of control | T/C (T/C endpoint: mean survival time, dose: 10.0 mg/kg/injection, schedule: Q01DX009 (ip), vehicle: water): 128 % of control

CC1CC[N-]CC1.CC1CC[N-]CC1.CC1CC[N-]CC1.CC1CC[N-]CC1.[Cl][Rh][Cl]
survivor count (T/C endpoint: mean survival time, dose: 200.0 mg/kg/injection, schedule: Q01DX009 (ip), vehicle: saline sonified): 5 of 6 | survivor count [2]: 0 of 6

Oc1ccc2cc3ccccc3cc2c1
survivor count (T/C endpoint: mean survival time, dose: 200.0 mg/kg/injection, schedule: Q01DX001 (ip), vehicle: DMSO): 1 of 3 | survivor count (T/C endpoint: mean survival time, dose: 400.0 mg/kg/injection, schedule: Q01DX001 (ip), vehicle: DMSO): 0 of 3

C[N+](C)(Cc1ccccc1)c1ccccc1
survivor count (T/C endpoint: mean survival time, dose: 40.0 mg/kg/injection, schedule: Q01DX009 (ip), vehicle: saline): 0 of 6

NNC(=O)c1ccc(Cl)cc1Nc1cccc(Cl)c1
survivor count [2]: 0 of 6

N#CC(C#N)=CN1CCCC1
survivor count (T/C endpoint: mean survival time, dose: 100.0 mg/kg/injection, schedule: Q01DX001 (ip), vehicle: saline with Tween-80): 0 of 6 | survivor count (T/C endpoint: mean survival time, dose: 200.0 mg/kg/injection, schedule: Q01DX001 (ip), vehicle: saline with Tween-80): 0 of 6 | survivor count (T/C endpoint: mean survival time, dose: 400.0 mg/kg/injection, schedule: Q01DX001 (ip), vehicle: saline with Tween-80): 0 of 6

CC(NC(=O)OCc1ccccc1)C(=O)O (stereo not drawn)
survivor count (T/C endpoint: mean survival time, dose: 400.0 mg/kg/injection, schedule: Q01DX009 (ip), vehicle: saline with Tween-80): 5 of 6

O=C(c1ccc(-c2ccccc2)cc1)C(Br)C(Br)c1ccccc1 (stereo not drawn)
survivor count (T/C endpoint: mean survival time, dose: 25.0 mg/kg/injection, schedule: Q01DX009 (ip), vehicle: water): 6 of 6

COC1CCC2CCN(C)C(Cc3ccc(Oc4ccc(CC5C6CC(OC)CCC6CCN5C)cc4)cc3)C2C1 (stereo not drawn)
survivor count (T/C endpoint: mean survival time, dose: 6.25 mg/kg/injection, schedule: Q04DX002 (ip), vehicle: saline with Tween-80): 2 of 3 | survivor count (T/C endpoint: mean survival time, dose: 12.5 mg/kg/injection, schedule: Q04DX002 (ip), vehicle: saline with Tween-80): 0 of 3 | survivor count (T/C endpoint: mean survival time, dose: 25.0 mg/kg/injection, schedule: Q04DX002 (ip), vehicle: saline with Tween-80): 0 of 3 | survivor count (T/C endpoint: mean survival time, dose: 50.0 mg/kg/injection, schedule: Q04DX002 (ip), vehicle: saline with Tween-80): 0 of 3

From PubChem BioAssay AID256 (DTP/NCI, 2004)
